For assay [1], the target named is p85 regulatory subunit of PI3K (human (endogenous in patient-derived GBM cells)). As to the kind of experiment: co-IP; co-IP of p85, PIP4K2A and PTEN from PTEN-deficient GBM cells transduced with control or doxycycline-inducible PTEN wild-type; same lysis buffer and IP procedure; IgG as control antibody.
Assay [2] has the same target. The assay can be described thus: co-IP; IP with anti-p85 antibody from 500 µg protein of PTEN-deficient GBM cell lysate (25 mM Tris-HCl pH 7.4, 150 mM NaCl, 1% NP-40, 1 mM EDTA, 5% glycerol), overnight, protein A/G beads, three washes; immunoblot with PIP4K2A antibody; IgG as control antibody. On the technique in general: A western blot detects proteins with antibodies after separation by electrophoresis.

Results are given in words; binding and its absence hold for the method and conditions named. In cells and extracts the contact can be indirect. A result given as binding can be weak or reduced; the word gives no strength.

B1: PIP4K2A (phosphatidylinositol-5-phosphate 4-kinase, type II, alpha) (enzyme, UniProt P48426 1-406)
chain: MATPGNLGSSVLASKTKTKKKHFVAQKVKLFRASDPLLSVLMWGVNHSINELSHVQIPVMLMPDDFKAYSKIKVDNHLFNKENMPSHFKFKEYCPMVFRNLRERFGIDDQDFQNSLTRSAPLPNDSQARSGARFHTSYDKRYIIKTITSEDVAEMHNILKKYHQYIVECHGITLLPQFLGMYRLNVDGVEIYVIVTRNVFSHRLSVYRKYDLKGSTVAREASDKEKAKELPTLKDNDFINEGQKIYIDDNNKKVFLEKLKKDVEFLAQLKLMDYSLLVGIHDVERAEQEEVECEENDGEEEGESDGTHPVGTPPDSPGNTLNSSPPLAPGEFDPNIDVYGIKCHENSPRKEVYFMAIIDILTHYDAKKKAAHAAKTVKHGAGAEISTVNPEQYSKRFLDFIGHILT
B1: the binding result in assay [1] and in assay [2] was “binds” each time.

The values are drawn from PMC6504209.
